The test addresses T1, APAF-1_(122–131), within cellulose-bound dodecapeptides of APAF-1 (human) (UniProt O14727).
T1 sequence (peptide): RPVVFVTRKK
Kind of test: peptide or protein array; overlapping dodecapeptides of APAF-1 119-141 spot-synthesised on a cellulose membrane, blocked with SuperBlock, incubated with purified PP1c, detected with anti-PP1c antibody, peroxidase-conjugated secondary antibody and ECL; both purified.

Sequences of proteins named here, by UniProt entry; tags and fusion partners are left off. A change or cut given only in a name is not applied to a line headed by its entry.
UniProt O14727: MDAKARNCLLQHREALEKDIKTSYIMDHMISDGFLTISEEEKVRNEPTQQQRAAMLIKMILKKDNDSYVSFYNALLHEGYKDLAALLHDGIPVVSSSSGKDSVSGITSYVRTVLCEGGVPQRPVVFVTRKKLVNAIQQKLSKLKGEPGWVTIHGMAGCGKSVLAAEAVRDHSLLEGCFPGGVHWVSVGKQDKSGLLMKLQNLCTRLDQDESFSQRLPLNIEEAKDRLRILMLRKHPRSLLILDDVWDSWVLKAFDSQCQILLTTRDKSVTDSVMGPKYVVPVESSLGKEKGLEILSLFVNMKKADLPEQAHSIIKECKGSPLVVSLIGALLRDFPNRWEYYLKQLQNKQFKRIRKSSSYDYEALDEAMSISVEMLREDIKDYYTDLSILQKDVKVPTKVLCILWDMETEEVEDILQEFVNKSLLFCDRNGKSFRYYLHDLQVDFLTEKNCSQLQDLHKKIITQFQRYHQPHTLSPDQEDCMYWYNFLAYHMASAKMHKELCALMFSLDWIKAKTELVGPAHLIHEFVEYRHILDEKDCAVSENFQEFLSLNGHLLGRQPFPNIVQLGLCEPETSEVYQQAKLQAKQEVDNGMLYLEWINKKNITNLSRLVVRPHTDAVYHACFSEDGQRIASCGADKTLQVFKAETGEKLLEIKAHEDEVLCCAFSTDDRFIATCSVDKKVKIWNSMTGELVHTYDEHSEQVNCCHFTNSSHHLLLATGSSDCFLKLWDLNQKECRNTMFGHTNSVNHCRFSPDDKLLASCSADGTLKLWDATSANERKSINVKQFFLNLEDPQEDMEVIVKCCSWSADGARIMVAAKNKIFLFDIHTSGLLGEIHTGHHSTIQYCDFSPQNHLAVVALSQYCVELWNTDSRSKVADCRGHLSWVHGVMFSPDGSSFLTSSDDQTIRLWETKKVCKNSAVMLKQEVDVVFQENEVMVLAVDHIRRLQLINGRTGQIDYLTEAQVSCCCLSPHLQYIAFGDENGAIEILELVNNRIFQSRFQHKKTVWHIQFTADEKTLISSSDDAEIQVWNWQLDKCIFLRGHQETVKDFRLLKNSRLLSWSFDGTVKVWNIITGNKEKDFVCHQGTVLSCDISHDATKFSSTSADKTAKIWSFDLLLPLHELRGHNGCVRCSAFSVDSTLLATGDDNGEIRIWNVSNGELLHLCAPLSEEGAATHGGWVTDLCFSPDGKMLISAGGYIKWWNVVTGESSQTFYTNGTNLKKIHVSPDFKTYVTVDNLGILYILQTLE

Results are given in words; binding and its absence hold for the method and conditions named. Binding can be weak; no strength is given.

Consider purified PP1c (enzyme), for which the binding entry is “binds”.

The record behind these values is article PMC2848619, “The Combinatorial PP1-Binding Consensus Motif (R/K)x (0,1)V/IxFxx(R/K)x(R/K) Is a New Apoptotic Signature” (PLoS ONE, 2010).
